Holding throughout (experiment): split reporter
Experiment [1] addresses PHOT2 split-YFP fusion (Arabidopsis thaliana) (UniProt P93025).
Experiment [2] concerns the target T1, PHYA split-YFP fusion (Arabidopsis thaliana) (UniProt P14712).
T1 sequence: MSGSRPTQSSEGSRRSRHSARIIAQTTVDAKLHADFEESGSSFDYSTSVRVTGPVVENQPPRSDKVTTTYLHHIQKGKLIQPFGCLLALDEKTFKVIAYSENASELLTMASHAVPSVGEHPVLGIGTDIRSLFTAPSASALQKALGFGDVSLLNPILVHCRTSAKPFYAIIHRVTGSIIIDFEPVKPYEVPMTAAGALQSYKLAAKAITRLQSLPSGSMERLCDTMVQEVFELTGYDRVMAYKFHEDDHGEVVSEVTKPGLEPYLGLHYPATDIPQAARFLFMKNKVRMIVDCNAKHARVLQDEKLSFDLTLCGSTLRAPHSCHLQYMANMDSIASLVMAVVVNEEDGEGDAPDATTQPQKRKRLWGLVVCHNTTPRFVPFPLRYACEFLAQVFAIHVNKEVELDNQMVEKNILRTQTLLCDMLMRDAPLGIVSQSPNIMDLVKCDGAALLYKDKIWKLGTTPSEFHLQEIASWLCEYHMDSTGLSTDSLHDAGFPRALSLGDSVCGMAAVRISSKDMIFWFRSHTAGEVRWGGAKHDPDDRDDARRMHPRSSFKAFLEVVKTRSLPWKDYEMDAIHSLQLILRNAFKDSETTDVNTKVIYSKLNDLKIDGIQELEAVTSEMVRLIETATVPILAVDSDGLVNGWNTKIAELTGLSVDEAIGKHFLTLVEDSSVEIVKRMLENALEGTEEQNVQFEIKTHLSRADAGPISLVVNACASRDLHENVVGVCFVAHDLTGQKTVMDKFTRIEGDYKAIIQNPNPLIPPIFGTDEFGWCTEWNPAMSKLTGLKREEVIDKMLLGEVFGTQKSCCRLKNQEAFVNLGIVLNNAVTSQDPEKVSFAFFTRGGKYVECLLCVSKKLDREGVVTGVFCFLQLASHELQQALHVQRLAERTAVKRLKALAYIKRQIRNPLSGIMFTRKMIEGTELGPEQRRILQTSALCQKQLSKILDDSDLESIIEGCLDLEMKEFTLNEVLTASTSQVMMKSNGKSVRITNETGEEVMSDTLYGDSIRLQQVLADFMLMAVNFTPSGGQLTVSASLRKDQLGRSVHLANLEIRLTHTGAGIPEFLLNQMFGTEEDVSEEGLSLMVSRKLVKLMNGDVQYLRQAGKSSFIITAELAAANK

The chains behind the UniProt entries cited, without tags or fusion partners.
UniProt P93025: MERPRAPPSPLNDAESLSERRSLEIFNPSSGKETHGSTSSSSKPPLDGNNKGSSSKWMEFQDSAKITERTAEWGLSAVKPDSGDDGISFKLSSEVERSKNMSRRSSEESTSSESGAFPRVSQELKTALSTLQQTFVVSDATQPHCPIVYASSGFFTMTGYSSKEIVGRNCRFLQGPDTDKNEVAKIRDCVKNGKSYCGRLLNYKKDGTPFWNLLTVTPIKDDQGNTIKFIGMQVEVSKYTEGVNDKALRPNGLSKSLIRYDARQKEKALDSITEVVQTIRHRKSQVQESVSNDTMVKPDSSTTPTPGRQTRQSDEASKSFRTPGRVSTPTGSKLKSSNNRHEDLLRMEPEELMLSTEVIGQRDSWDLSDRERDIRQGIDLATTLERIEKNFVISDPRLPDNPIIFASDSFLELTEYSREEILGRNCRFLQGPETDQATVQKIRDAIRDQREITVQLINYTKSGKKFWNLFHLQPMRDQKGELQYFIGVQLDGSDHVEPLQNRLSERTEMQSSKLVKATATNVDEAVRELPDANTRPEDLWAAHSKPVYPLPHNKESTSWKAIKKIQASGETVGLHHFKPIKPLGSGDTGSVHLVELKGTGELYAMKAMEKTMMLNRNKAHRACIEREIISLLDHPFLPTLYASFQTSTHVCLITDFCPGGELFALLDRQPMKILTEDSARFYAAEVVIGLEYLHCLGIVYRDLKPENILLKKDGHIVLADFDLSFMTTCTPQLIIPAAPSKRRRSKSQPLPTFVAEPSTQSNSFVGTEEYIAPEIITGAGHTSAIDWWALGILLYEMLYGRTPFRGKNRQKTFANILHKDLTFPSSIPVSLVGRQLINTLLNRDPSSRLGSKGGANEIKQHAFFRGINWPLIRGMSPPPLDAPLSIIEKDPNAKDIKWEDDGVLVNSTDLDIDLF
UniProt Q96524: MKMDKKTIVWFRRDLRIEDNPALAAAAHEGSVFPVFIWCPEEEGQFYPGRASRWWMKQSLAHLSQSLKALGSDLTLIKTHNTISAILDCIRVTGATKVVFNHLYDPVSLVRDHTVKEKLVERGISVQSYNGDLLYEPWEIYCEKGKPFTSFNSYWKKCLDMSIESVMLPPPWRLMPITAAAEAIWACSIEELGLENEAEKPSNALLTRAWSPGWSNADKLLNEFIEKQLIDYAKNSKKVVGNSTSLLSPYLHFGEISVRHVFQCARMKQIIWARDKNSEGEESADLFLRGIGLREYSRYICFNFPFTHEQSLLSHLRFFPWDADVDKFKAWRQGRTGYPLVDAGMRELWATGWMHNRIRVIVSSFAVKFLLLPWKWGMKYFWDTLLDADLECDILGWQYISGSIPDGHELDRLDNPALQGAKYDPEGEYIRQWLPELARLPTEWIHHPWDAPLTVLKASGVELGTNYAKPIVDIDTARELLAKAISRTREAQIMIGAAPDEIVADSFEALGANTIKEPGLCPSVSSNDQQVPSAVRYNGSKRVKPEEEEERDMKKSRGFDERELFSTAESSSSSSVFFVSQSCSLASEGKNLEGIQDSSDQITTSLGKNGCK

The target in experiment [3] is CRY2 split-YFP fusion (Arabidopsis thaliana) (UniProt Q96524).
In experiment [4] the target is T2, UVR8 split-YFP fusion (Arabidopsis thaliana) (UniProt Q9FN03).
T2 sequence: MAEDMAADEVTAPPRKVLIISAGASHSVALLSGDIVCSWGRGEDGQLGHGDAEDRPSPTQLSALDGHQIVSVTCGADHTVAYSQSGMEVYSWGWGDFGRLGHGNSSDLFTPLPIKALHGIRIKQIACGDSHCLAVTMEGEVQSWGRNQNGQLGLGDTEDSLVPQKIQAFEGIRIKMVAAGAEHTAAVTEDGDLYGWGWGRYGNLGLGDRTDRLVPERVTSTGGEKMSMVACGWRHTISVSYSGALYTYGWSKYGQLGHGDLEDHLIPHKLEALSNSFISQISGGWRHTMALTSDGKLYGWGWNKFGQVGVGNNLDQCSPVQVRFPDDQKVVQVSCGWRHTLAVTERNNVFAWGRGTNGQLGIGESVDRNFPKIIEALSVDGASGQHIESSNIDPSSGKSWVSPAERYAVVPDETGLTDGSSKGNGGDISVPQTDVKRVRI

Experiment [5] concerns the target CRY2 split-YFP fusion (Arabidopsis thaliana) (UniProt Q96524). This is another data set of the same source.
In experiment [6] the target is T3, PAP8 split-YFP fusion (BiFC of Figure 5d) (Arabidopsis thaliana) (UniProt Q9XI19).
T3 sequence: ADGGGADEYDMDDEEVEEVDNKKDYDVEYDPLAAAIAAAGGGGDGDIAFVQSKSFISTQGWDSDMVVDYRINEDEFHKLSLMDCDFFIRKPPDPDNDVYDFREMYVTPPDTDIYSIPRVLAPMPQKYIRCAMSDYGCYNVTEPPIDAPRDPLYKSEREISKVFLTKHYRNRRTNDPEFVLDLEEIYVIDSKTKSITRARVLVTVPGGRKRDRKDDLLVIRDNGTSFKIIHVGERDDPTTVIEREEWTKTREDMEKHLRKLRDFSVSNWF

Where two headings read alike, the source gives them in different places. Results are given in words; binding and its absence hold for the method and conditions named. Binding seen in cells or lysates may run through a third protein. Some results given as binding are weak or reduced against the parent protein; the word gives no strength. For some assays here: Where a sequence is shown, tags or fusion partners need not be part of it.

Turning to “ΔcTP version of PAP8, split-YFP fusion (from UniProt Q9XI19 60-328) (domain or fragment)”, the binding result is on record as “binds” in experiment [1], “binds weakly” in experiment [2], “binds” in experiment [3] and “binds” in experiment [4].

B1: ΔcTP version of PAP5, split-YFP fusion (domain or fragment, UniProt F4IHY7 31-527)
chain: VKCGFPLKTLHAGITSRDRSLRHCIKCKKEDGDGDVSEGSKKSEEGFEYVTVERHPYHSYMDSTSGKLEPASGARASIPGEDYWPEGTSSRVRAARAPQPAGESSSFPSYGKNPGSRRKKNRKATEENVTVETNDEVSDSEDSSEEEENDSSDGFVTYKNEFEREEEETGFELDKKLGRPHPFIDPTKKKQIEKTLTSDESWWNWRKPEKEQWSRWQRRRPDVETVFLKAMAETGQVKLYGEEPTLTETSLYRARRHLFKEERLQAERERLAKEGPMAFYSEWVKAWKRDTSREAVQKHFEETGEDENTQLIEMFSHQTDREYRIMMGTDIRIKRDPLAMRMREDQIKQIWGGDPVYPTINYIQDPNAVMDFRGPDFHEPTPNMLSYLKENGKVISREMHEALLTKEKTEQLEVPDMDDAMAQAVDIGENDDDEDDADVEKDDEKVPRNWSVLKETPELRTAKPKPKKEGRMSLDEAVDDAENLTDFLMDFEEETDP
In the case of B1, in experiment [5], the binding entry is “binds”.

B2: ΔcTP version of PAP12, split-YFP fusion (domain or fragment, UniProt Q8VZV9 33-161)
chain: CGIQRDDNGRRVWRRRTLTKKDDMLRYKMQRVPFVEEQVRKIREVGKVMTMDIEQLLLREDNRFEFVNSVAAEATEYVDKNRDEYGGSKKAIFHVLSNRVNDLGFDRPEAYVEADPYKPGPGYLLEYYT
On to B2, for which the binding result in experiment [5] is reported as “binds”.

B3: STIC2 split-YFP fusion (protein, UniProt O82230 49-182)
chain: VNGLFGGGNKDNNSEDGQSKAGIFGNMQNMYETVKKAQMVVQVEAVRVQKELAAAEFDGYCAGELVKVTLSGNQQPIRTDITEAAMELGSEKLSQLVTEAYKDAHAKSVVAMKERMSDLAQSLGMPPGLSEGMK
B3: the binding result in experiment [6] is “binds”.

B4: EMB1144 split-YFP fusion (protein, UniProt P57720 51-436)
chain: TGSSYGTHFRVSTFGESHGGGVGCIIDGCPPRIPLTESDLQFDLDRRRPGQSRITTPRKETDTCRISSGVSEGMTTGTPIHVFVPNTDQRGLDYSEMSVAYRPSHADATYDMKYGVRSVQGGGRSSARETIGRVAPGALAKKILKQFAGTEILAYVSQVHHVVLPEELVDHENLTLEQIENNIVRCPNPEYAEKMIAAIDAVRTKGNSVGGVVTCIVRNAPRGLGTPVFDKLEAELAKACMSLPATKGFEFGSGFAGTFLTGLEHNDEFYTDENGRIRTRTNRSGGIQGGISNGEIINMRVAFKPTSTIGRKQNTVTRDKVETEMIARGRHDPCVVPRAVPMVEAMVALVLVDQLMAQYAQCHLFPINPELQEPLQIEQPQNATAL
Consider B4, for which the binding result in experiment [6] is on record as “binds”.

B5: LIN2 split-YFP fusion (protein, UniProt Q9LR75 49-386)
chain: VSIEKEVPETERPFTFLRDSDDVTPSSSSSSVRARFETMIRAAQDSVCDAIEAIEGGPKFKEDVWSRPGGGGGISRVLQDGNVFEKAGVNVSVVYGVMPPEAYRAAKGSASDQKPGPVPFFAAGVSSVLHPKNPFAPTLHFNYRYFETDAPKDVPGAPRQWWFGGGTDFTPAYIFEEDVKHFHSIQKQACDKFDPSFYPRFKKWCDDYFYIKHRDERRGLGGIFFDDLNDYDQEMLLSFATECANSVVPAYIPIVEKRKDMEFTEQHKAWQQLRRGRYVEFNLVYDRGTTFGLKTGGRIESILVSLPLSARWEYDHKPEEGTEEWKLLDACINPKEWI
In the case of B5, in experiment [6], the binding result is given as “binds”.

B6: TIG split-YFP fusion (protein, UniProt Q8S9L5 78-547)
chain: AASPAVETSVKEDKLPADLKVTETVQANSSVKLSVEVPEIVCEDCYQRVLTEFMKLSKVPGFRPKTRVPENIIVGFVGRQYVLRATVESILKRTLPHAMESVTGRALKDSIQIVSSFPDMEKAYSKLKTLSYEVVVDVVPELKWNPEDGYKNMKVVVELGDEIDAKKACERQLRQKYKSLGALKIVTERGLQVGDLAVVDISATTIDEDGSTGQAIPDAESKGFHFDTEEGNRLLPGFLDAIIGIRAGESKSFTLVFPESWKQESLRGQRAQFTVDCKELFYRDLPTLDDSLADKLLPGCTTLKEVEETLAKRCQEMEQEAKEQATDNAILEQIRKMVEVEIPQSLFEEQGRQFYGARLLEIQGNMKLNEDQLASLSSQKAVNEFLETQRESITNIIKQNIAVGDIFKRENLEFSTDELVKEVENSISEFKKHKQEFDEERVKDQVQEILEGAKVLEWLKDRAEIQYITR
B6: the binding entry in experiment [6] is listed as “binds”.

B7: ΔcTP version of PAP7, split-YFP fusion (domain or fragment, UniProt Q84JF5 63-483)
chain: ASEESSSSELETADPDFYKIGYVRSVRAYGVEFKEGPDGFGVYASKDIEPRRRARVIMEIPLELMITIRQKHPWMFFPDIVPIGHPIFDIINSTDPEIDWDIRLACLLLFSFDRDDHFWRLYGDFLPAADECSSLLLATEEDLAELQDPDLVSTIRQQQKRILDFWEKNWHSGVPLKIKRLAEDPERFIWAVSMAQTRCISMQTRVGALVQELNMMIPYADMLNHSFEPNCFLHWRPKDRMLEVMSNAGQDIKKGEEMTINYMPGQKNNMLMERYGFSTPVNPWDAIKFSGDSRIHLNSFLSVFNIYGLPEEYYHDSELSRGDTFVDGAVIAAARTLPTWSDIDLPPIPSAERKAVKELQDECRKMLAEYPTTAEQDQKLLDSMSEARTTFATAVKYRMHRKMFIGKIIKALDIYQERLLY
In the case of B7, in experiment [5], the binding result is listed as “binds”.

The values above are taken from article doi:10.1101/2024.10.25.620210.
